{"source": "patent US20050215544A1", "about": "“Methods of treating HIV infection” (priority 2004, published 2005)", "tested_on": "HIV-1 LAI", "test": "Two-drug combination antiviral assay with Compound 1 (combination indices, Chou and Rideout)", "type": "cell-based", "settings": "combination with Compound 1; all ratios and inhibition levels", "experimental": "Virus and cell lines. The T-cell lines, MT-2 and PM-1 were obtained through the AIDS Research and Reference Reagent Program, NIAID, and were contributed by Dr. D. Richman and Dr. R. Gallo, respectively. Both cell lines were cultured in RPMI 1640 medium supplemented with 10% fetal bovine serum, 2 mM L-glutamine and sub-cultured twice a week. The LAI strain of HIV-1 was obtained from the Fred Hutchinson Cancer Research Center, and the Bal strain was from NIH. Both virus stocks were amplified and titered in MT-2 cells (LAI) and PM-1 cells (Bal) using a virus infectivity assay.\nDrug Susceptibility and Cytotoxicity Assays. […] On day-five post-infection, 20 μl from each well was harvested and quantitated by a reverse transcriptase (RT) assay, or in samples involving non-nucleoside RT inhibitors, an MTS assay. […] On day-six post-infection, 20 μl from each well was harvested, 20- and 50-fold diluted and quantitated by p24 assay. […] Cell viability was determined by an MTS assay. The CC50 values were calculated by using the exponential form of the median effect equation as mentioned below for calculation of EC50.\nAnalysis of Drug Combination Effects. For determination of CI values, drugs were diluted in a fixed ratio and multiple ratios were analyzed. […]\nTo assess antiviral effects of different drug combination treatments, combination indices (CIs) were calculated according to Chou and Rideout. […]", "note": "For at least one compound, name, drawing or mass did not settle the structure."}
{"smiles": "Nc1ccn([C@@H]2CS[C@H](CO)O2)c(=O)n1", "note": "[Lamivudine]", "values": [{"measurement": "Overall Result of two-drug combination", "value": "Additive-"}]}
